Library screening results

The values are deposited in ChEMBL (CHEMBL3988442, “University of Dundee, Small-Polar-MMV Screening Library” (2021)).

Values are the deposited “Percent Effect”, in %.
The record does not define 0% and 100%; most values in the screen are far below 50% and negative numbers occur (in some assays of this library far below -100).
Compounds were drawn at random from those tested, without regard to their results.
A dash means the value is not listed here; it may have been measured.

Mtb growth Cornell: 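Whole-cell assay for inhibitors of Mycobacterium tuberculosis growth, labelled Cornell in the record; the read-out is not stated. The concentration is filed as 10 mM, unlikely as a test dose, so the dose is not known. Higher means stronger inhibition (inferred from two other growth screens of the library). Of about 53,000 compounds tested this way, about 900 (1.7%) reached 50% or more in at least one test.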
Mtb heat-shock: 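Assay on Mycobacterium tuberculosis, filed only as a heat shock assay from Cornell; the read-out is not stated. The concentration is filed as 10 mM, unlikely as a test dose, so the dose is not known. The record gives no direction; compounds that gave an IC50 in retests scored well above the rest, so higher reads as stronger inhibition. Of about 69,000 compounds tested this way, about 930 (1.4%) reached 50% or more in at least one test.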

| SMILES | Mtb growth Cornell | Mtb heat-shock |
|---|---|---|
| `CCOc1cccc(C(=O)N2CCCn3nc(CCC(=O)O)cc3C2)c1` | 21.03 | 5.757 |
| `O=C(O)C(F)(F)F.O=C(O)C(F)(F)F.[H][C@@]12CCN(Cc3ccncc3)CC[C@@]1([H])N(S(C)(=O)=O)CCO2` | 0.8331 | 4.099 |
| `COc1cc(F)c(S(=O)(=O)N2c3ncccc3NC(=O)C2C)cc1OC` (stereo not given) | - | -1.241 |
| `Cc1ccc(-c2cc(N)c(=O)n(C(C)C(=O)NCC3CCCCC3)n2)s1` (stereo not given) | -37.7 | -31.67 |
| `CC(=O)NCCC(=O)NCc1ccc(Br)cc1Cl` | -1.772 | 10.56 |
| `Cc1nc(C)n(C2CCCN(C(=O)c3ccc(NC4CC4)nc3)C2)n1` (stereo not given) | 7.124 | 4.43 |
| `Cc1cc(C)c2c(c1)C(NC(=O)CSc1nnc[nH]1)CCO2` (stereo not given) | - | -19.68 |
| `O=C(c1cc(-n2cnnn2)ccc1Cl)N1CCOCC1` | 15.99 | -22.58 |
| `Cc1ccnc(OCC(=O)N2CCN(c3ncccn3)CC2)n1` | - | 13.68 |
| `O=C(CSCC1CC1)N1CCCC(c2nccn2Cc2cccnc2)C1` (stereo not given) | -3.675 | -26.41 |
| `CCN1CCN(CC(C)(O)c2cccc(C(F)(F)F)c2)CC1` (stereo not given) | 23.98 | 8.123 |
| `COc1ccc(CCC(=O)Nc2cccnc2N2CCCC2)cc1Br` | 3.017 | 23.93 |
| `COc1ccc(S(=O)(=O)NC(=O)c2cscn2)cc1C` | - | -3.536 |
| `Cn1cnc2c1CCN(C(C(=O)N1CCCCC1)c1ccccc1)C2` (stereo not given) | - | -31.23 |
| `COc1ccc(Cl)cc1CNC(=O)CN1CCC2(CCOC2)C1` (stereo not given) | -1.864 | -15.47 |
| `O=C(Nc1ccccn1)C1CCN(Cc2cccc3c2OCCO3)CC1` | -22.09 | -2.764 |
| `O=C(NC1CC1)N1CCc2ccc(=O)n(Cc3cccnc3)c2CC1.O=C(O)C(F)(F)F` | 5.377 | -28.91 |
| `Cc1noc(CN(C)Cc2ccc3c(c2)OCO3)n1` | -26.76 | -16.5 |
| `N#Cc1ccc(CNCCc2cc(F)cc3c2OCOC3)cc1` | - | 1.165 |
| `CSc1ccc(CN(C(=O)c2cc(C)[nH]c(=O)c2)C2CC2)cc1` | 30.2 | -6.671 |
| `COc1cc(Cl)c(C)cc1-n1nnc(C(=O)O)c1C` | 1.114 | 10.21 |
| `CC(C)C(C(=O)N1CCC(Nc2cccnn2)CC1)n1cncn1` (stereo not given) | 5.782 | 14.04 |
| `[H][C@@]12OCCN(C(=O)C3=CCCC3)[C@@]1([H])CC[C@@H]2OC` | -19.01 | -18.05 |
| `CCCc1nnc(N2CCN(c3cccc(OC)c3)C(=O)C2)o1` | -32.31 | 5.988 |
| `O=C1CCC(C(=O)NCc2nn(-c3ccccc3)c3c2CCC3)CN1` (stereo not given) | -7.917 | 2.28 |
| `Cc1cc(-c2cnn(C)c2)ccc1OCC(N)=O` | - | -6.397 |
| `O=C(CC1CCN(CCc2ccccc2)CC1)NC1CCOCC1` | -11.63 | 5.963 |
| `COC(=O)C1CCN(c2cc(C)nc(-c3ccncc3)n2)CC1` | - | -3.47 |
| `O=C1C(NCc2nnc3n2CCCC3)CCN1CC(F)(F)F` (stereo not given) | -11.77 | -21.42 |
| `COCCC1(CNC(=O)NCC2CCCS2)CCCC1` (stereo not given) | 25.85 | -13.11 |
| `CC(C)CN1CCCC1c1cc[nH]n1` (stereo not given) | -12.64 | 35.6 |
| `CC(C)NC(=O)c1ccc2c(c1)nc1n2CCN(c2ccccc2)C1` | - | -2.372 |
| `CCc1nnc(SCC(=O)Nc2cc(C(C)(C)C)nn2C)[nH]1` | 0.2904 | -5.328 |
| `CCCN(C)c1ccc(C(=O)NCc2ccnc(C)n2)cc1` | - | -1.64 |
| `COCCS(=O)(=O)NC(C)c1cccc(-n2cccn2)c1` (stereo not given) | 0.03196 | -14.96 |
| `C1Cc2nc(CCNc3nc(C4CC4)nc4c3CCNCC4)sc2C1` | 27.57 | -14.45 |
| `COC(=O)CNC(=O)c1nc(Cl)sc1C(C)C` | 14.3 | -11.74 |
| `O=C(O)c1c[nH]c2cc(NS(=O)(=O)c3cccc(Cl)c3F)ccc12` | 5.419 | 14.08 |
| `CCOCC(O)CN1CCN(C(=O)Cc2cccc(Cl)c2)CC1` (stereo not given) | - | 4.714 |
| `Cc1ccc(C(=O)N2CCc3ncnc(-c4cnn(C)c4)c3CC2)o1` | - | -16.83 |
| `NC(=O)CNC(c1ccccc1)c1ccccc1` | -6.025 | 0.7737 |
| `CC(C)N1CCc2ncn(C)c2C1C(=O)NCCN1CCCC1` (stereo not given) | 15.29 | 1.396 |
| `Cc1cc(NCc2cc3n(n2)CCCN(C(=O)C2CCC2)C3)nc(N)n1` | 8.968 | -9.72 |
| `CC(=O)Nc1c(C)noc1/C=C\c1ccc(S(=O)(=O)N2CCCC2)cc1` | - | -4.356 |
| `Cc1nc(N2C[C@@H](CN3CCCN(C)CC3)[C@@H](CO)C2)c2sccc2n1` | -17.97 | -15.59 |
| `Cn1ccc2ccc(C(=O)N3CCN(C(=O)N4CCOCC4)CC3)cc21` | 1.797 | -10.51 |
| `CC(C(=O)NCc1ccnc(OCC(F)(F)F)c1)n1cncn1` (stereo not given) | -18.65 | 0.1346 |
| `CCC(C(=O)NCc1ccncc1)N(c1cccc(C)c1)S(C)(=O)=O` (stereo not given) | 12.48 | -7.256 |
| `CN(C)C(C(=O)NCC1(N(C)C)CCOCC1)c1ccccc1F` (stereo not given) | 26.43 | -17.77 |
| `CN(C)CCN1CCC2(CCN(C(=O)c3cccc(F)c3)CC2)C1=O.O=C(O)C(F)(F)F` | -20.54 | -26.99 |
| `CCC(=O)N1CCN(c2cc(N(C)C)cnn2)CC1` | -5.318 | 8.746 |
| `Cc1ccc(C(C)(O)CNC(=O)c2scnc2C)o1` (stereo not given) | 17.1 | 24.88 |
| `COc1ccc([C@@H]2CN(C(=O)CCC(F)(F)F)C[C@H]2NC(C)=O)cc1` | 16.74 | 9.778 |
| `COc1cccc(Cn2[nH]c(C)c3c(NC(=O)C(C)OC)nnc2-3)c1` (stereo not given) | 19.31 | 12.63 |

Some entries from above, unchanged:

SMILES,Mtb growth Cornell,Mtb heat-shock
Cc1ccc(C(=O)N2CCc3ncnc(-c4cnn(C)c4)c3CC2)o1,-,-16.83
O=C1CCC(C(=O)NCc2nn(-c3ccccc3)c3c2CCC3)CN1 (stereo not given),-7.917,2.28
CCC(=O)N1CCN(c2cc(N(C)C)cnn2)CC1,-5.318,8.746